The whole screen tested about 340,000 compounds, of which about 170 (0.05%) were called active. The inconclusive results got no clear call from the source; some entries with a clear call stand among them for comparison. The call rests on the fitted dose curve; in most records, active means well fitted inhibition curve with a large enough effect in the signal ratio, with a control signal flat (not every such curve was filed as active); inconclusive means small, poorly fitted or top-dose-only effect, or effect the other way, or a change in a side signal; inactive means flat fitted curve, though single readings scatter; the % refers to the signal ratio. A potency beside an inconclusive call is a rough fit, not a confirmed value.
Test: qHTS Assay to Find Inhibitors of Chronic Active B-Cell Receptor Signaling;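 on activity change, negative = inhibition: plate controls were basal doxycycline-induced cells for no effect and cells given 10 µM MG132 for full effect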
Conditions: ABC-DLBCL IkBa-CBG/CBR reporter, luminescence ratio (green luciferase fused to IkBa over red control in TMD8 lymphoma cells), 4 h; activity change, negative = inhibition: at 46.1 µM (top of the series)
How it was run: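 Concentration-response series (up to 46 uM) were applied to TMD8 dual-reporter cells for 4 h at 37C with doxycycline. Green/red ratio, after filter-overlap correction, defined %Activity; red signal alone was normalised to basal cells and zero luminescence.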
Potency means the concentration at half of the fitted maximal effect.

SMILES | activity change, negative = inhibition | Potency
CCC(C)NC(=O)c1c(N)n(/N=C/c2ccccn2)c2nc3ccccc3nc12 (configuration not stated) | inconclusive: 3.33% | –
O=C(Nc1cccc([N+](=O)[O-])c1)c1ccn[nH]1 | – | inconclusive: 11.2 µM [falling, partial curve, poor fit]
CCN1CCN(c2ccc(S(=O)(=O)N3CCCCC3)cc2NC(=O)c2cccc(C(F)(F)F)c2)CC1 | inconclusive: 2.78% | –
CCn1ncc(CNC(=O)C2(C)CC2(Br)Br)c1C (configuration not stated) | inconclusive: 0.467% | –
Cc1cc(NC(=O)COn2nnc3ccc(Cl)cc32)no1 | inactive: -4.14% | –
Cc1ccc(CC(=O)Nc2ccccc2-c2ccccc2)cc1C | inconclusive: 6.98% | –
CCOC(=O)COc1ccc([N+](=O)[O-])cc1 | inconclusive: 7.61% | –
COc1ccc(/C=C/C(=O)OCC(=O)NCCC2=CCCCC2)cc1OC | inactive: -6.35% | –
COc1ccc(N/C=C/C(=O)c2ccc(Cl)cc2)cc1 | inconclusive: 7.14% | –
CCCc1cc(=O)n2[nH]c(C)c(-c3ccc(Cl)cc3)c2n1 | inconclusive: -1.8% | –
CCOC(=O)c1cccc(NC(=O)CC2Oc3ccccc3NC2=O)c1 (configuration not stated) | – | inconclusive: 22.4 µM [falling, single point]
CCC(C)C(=O)Nc1nc(C)c(-c2csc(Nc3cc(OC)ccc3OC)n2)s1 (configuration not stated) | – | inconclusive: 10 µM [falling, partial curve, poor fit]
O=c1c2ccccc2[nH]c(=S)n1Cc1cccs1 | inactive: 3.67% | –
COc1cc(/C=C2/NC(=O)N(Cc3ccccc3F)C2=O)ccc1O | inconclusive: 2.4% | –
CCOC(=O)c1cc(-c2ccccc2)n(CCCC(=O)Nc2ccc(C)c(C)c2)c1C | inactive: 11% | –
Cc1ccc(Oc2ncnc(N)c2[N+](=O)[O-])cc1 | – | inconclusive: 20 µM [falling, single point]
COc1ccc(OCC(=O)N2c3ccc(C)cc3C3CN(C)CCC32)cc1 (configuration not stated) | inactive: 1.83% | –
CC(NC(=O)COC(=O)c1cc(NS(=O)(=O)c2ccc(Cl)c([N+](=O)[O-])c2)ccc1O)C1CC2CCC1C2 (configuration not stated) | inconclusive: 10% | –
COC(=O)c1c(-c2ccc(F)cc2)csc1NC(=O)c1ccco1 | inconclusive: 8.66% | –
Cc1nc2nc(-c3ccc(Cl)cc3)[nH]n2c(=O)c1C | – | inconclusive: 22.4 µM [falling, single point]
COC(=O)c1ccc(COc2ccc(/C=N/N3CCN(C)CC3)cc2)cc1 | inactive: 7.47% | –
O=C(Cc1cccc2ccccc12)Nc1nc2ccccc2[nH]1 | inconclusive: -3.18% | –
O=C(N/N=C/c1ccccn1)C(=O)N1CCCCCC1 | inconclusive: 20% | –
Cc1cc(OCC(=O)NNC(=S)NC(=O)c2ccc(Br)o2)ccc1Cl | inconclusive: 9.72% | –
O=C(O)CCc1ccc(-c2ccc(Cl)cc2)n1NC(=O)c1ccc(O)cc1 | inconclusive: -19.9% | –
CCC(=O)N1CCc2nc(-c3ccccc3)sc2C1 | inconclusive: -0.179% | –

Taken from above:
Cc1nc2nc(-c3ccc(Cl)cc3)[nH]n2c(=O)c1C – Potency: inconclusive: 22.4 µM [falling, single point]
COc1ccc(/C=C/C(=O)OCC(=O)NCCC2=CCCCC2)cc1OC – activity change, negative = inhibition: inactive: -6.35%
O=C(Cc1cccc2ccccc12)Nc1nc2ccccc2[nH]1 – activity change, negative = inhibition: inconclusive: -3.18%
Cc1ccc(CC(=O)Nc2ccccc2-c2ccccc2)cc1C – activity change, negative = inhibition: inconclusive: 6.98%

(list continues)

SMILES | activity change, negative = inhibition | Potency
O=C(C#Cc1ccccc1)c1ccco1 | – | inconclusive: 6.31 µM [falling, single point]
C=CCOc1ccc(/C=C/C(=O)OCC(=O)NCc2ccco2)cc1 | inactive: 6.9% | –
CCN(CC)c1ccc2cc(C(N)=O)c(=N)oc2c1 | inactive: -8.46% | –
CCCc1nnc(NC(=O)CCC(=O)N2CCC(Cc3ccccc3)CC2)s1 | inconclusive: 4% | –
O=C1CCC/C1=C/Nc1ccc2c(c1)OCO2 | – | inconclusive: 18.4 µM [falling, single point]
COc1ccc(C(CCNC(C)c2ccccc2)C(C)C)cc1 (configuration not stated) | inconclusive: -18.9% | –
O=C(CN1CCN(c2cccc(Cl)c2)CC1)Nc1nccs1 | – | inconclusive: 35.5 µM [falling, single point]
CCC(CC)c1nc(NCCC(=O)O)c2ccccc2n1 | inconclusive: 2.97% | –
CC(NC(=O)Cn1nc(C(F)(F)F)c2c1CCC2)c1ccccc1 (configuration not stated) | inconclusive: 16.9% | –
O=[N+]([O-])c1ccc(Nc2nc(NC3CCCCC3)nc(N3CCCC3)n2)cc1 | inconclusive: 11.6% | –
COc1cc(-c2cc(C(=O)N3CCN(c4ccccn4)CC3)c3ccccc3n2)cc(OC)c1OC | inactive: -4.86% | –
C/C=C/C=C\C(=O)Nc1cccc(C2=NOC3(C2)C[C@@H](C(N)=O)N(C(=O)c2cc([N+](=O)[O-])cc([N+](=O)[O-])c2)C3)c1 (some centres not stated) | – | inconclusive: 11.2 µM [falling, partial curve]
Nc1ccc(N2CCOCC2)c(Cl)c1 | inconclusive: -1.45% | –
O=[N+]([O-])c1ccc(N=Cc2ccc(Br)c([N+](=O)[O-])c2)cc1 | – | inconclusive: 29.1 µM [cytotoxic, single point]
Cc1ccccc1NC(=O)/C=C/c1cccc(C(F)(F)F)c1 | – | inconclusive: 11.2 µM [falling, partial curve]
CN(C)c1oc(-c2ccc(OCc3ccccc3)cc2)nc1C#N | inconclusive: 3.16% | –
COc1cc(C(CC(=O)Nc2ccc(Cl)cn2)N2Cc3ccccc3C2=O)cc(OC)c1OC (configuration not stated) | inconclusive: 2.93% | –
O=C(COC(=O)Cn1cnc2ccccc21)Nc1cccc2c1C(=O)c1ccccc1C2=O | inconclusive: -0.225% | –
CCc1ccc2oc(=O)cc(CN3CCCCC3)c2c1 | inconclusive: 2.7% | –
Cc1nn(Cc2cccc(C(=O)NC34CC5CC(CC(C5)C3)C4)c2)c(C)c1Br | inconclusive: 3% | –
Cc1ccc(NC(=O)Cn2c(=O)oc3ccccc32)cc1Cl | – | inconclusive: 35.5 µM [falling, partial curve, poor fit]
CCn1c(=O)n(CC(=O)NC2CCCC(C)C2C)c(=O)c2ccccc21 (configuration not stated) | – | inconclusive: 4.47 µM [falling, partial curve, poor fit]
CCN(N=Nc1cccc([N+](=O)[O-])c1)c1cccc([N+](=O)[O-])c1 | inconclusive: 19.9% | –
CC(C)(C)OC(=O)[C@H](Cc1ccccc1)NC(=O)c1nc[nH]c1C(=O)NC1CCN(C(=O)OC(C)(C)C)CC1 | inconclusive: 7.46% | –
Cc1ccc(S(=O)(=O)N(C)Cc2ccc(C(=O)NN=C(CC(C)C)CC(C)C)cc2)cc1 | inactive: 5.76% | –
O=C(c1cnn2c(C(F)F)cc(-c3ccccc3)nc12)N1CCCCC1c1cccnc1 (configuration not stated) | inconclusive: -1.56% | –

From PubChem BioAssay AID493014 (National Center for Advancing Translational Sciences (NCATS), 2011)
